Reference: US11124553B2, “TDP-43 mitochondrial localization inhibitor for the treatment of neurogenerative disease” (Case Western Reserve University, priority 2016, dated 2021)
Part of at least one peptide drawing is inferred or uncertain, most often the ends. Ends that are not written are not given here.

By UniProt entry, the sequences of proteins in these tests, tags left out.
UniProt Q921F2, whole entry: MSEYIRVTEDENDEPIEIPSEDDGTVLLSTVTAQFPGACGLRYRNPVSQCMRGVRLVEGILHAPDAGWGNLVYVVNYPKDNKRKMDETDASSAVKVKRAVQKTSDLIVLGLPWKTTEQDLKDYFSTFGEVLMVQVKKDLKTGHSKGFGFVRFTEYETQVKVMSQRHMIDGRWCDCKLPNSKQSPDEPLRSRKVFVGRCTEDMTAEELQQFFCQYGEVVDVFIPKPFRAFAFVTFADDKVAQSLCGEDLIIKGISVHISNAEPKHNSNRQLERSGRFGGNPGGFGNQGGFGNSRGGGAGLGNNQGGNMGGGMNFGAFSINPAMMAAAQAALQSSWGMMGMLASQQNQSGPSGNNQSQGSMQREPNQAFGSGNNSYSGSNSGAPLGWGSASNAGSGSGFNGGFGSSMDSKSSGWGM

Key:
ND3 and ND6 = test: Expression of mitochondrial encoded proteins in primary human patient fibroblasts (immunoblot); format: cell-based; details: G298S or A382T fibroblasts, 1 μM for 48 hours; compared with NHFs
pF1β = test: Mitochondrial import assay in vitro with pF1β (specificity control); format: biochemical; details: mitochondria pre-/co-treated with 5 μM peptide
endogenous mTDP-43 = molecular target: T1, endogenous mTDP-43 (Mus musculus, UniProt Q921F2); test: Mitochondrial TDP-43 in brains of WT mice; format: in vivo; details: 1.5 mg/kg/day s.c. infusion for 6 weeks; data not shown
T1 construct: from tissue; host or cells: brain of C57BL/6 wild-type (NTG) mice

TDP-43 A315T mice [1] = test: Motor neuron, neuropathology and neuromuscular junction analysis in TDP-43 A315T mice; format: in vivo, mouse; details: 70 day old male mice treated from 60 day old, restored to levels comparable to NTG mice
A382T human neurons = test: iPSC-derived A382T human neurons: mitochondria and oxidative stress; format: cell-based; details: compared with control human neurons
5×FAD transgenic mice [2] = test: Rotarod in 5×FAD transgenic mice; format: in vivo, mouse; details: 0.5 mg/kg/day s.c. infusion for 4 weeks; compared with Tg mice treated with cPM
[3] = system: hemizygous TDP-43M337V mice; test: TDP-43 mitochondrial and cytoplasmic localization in brains of hemizygous TDP-43M337V mice; format: in vivo, mouse; details: 1.5 mg/kg/day s.c. infusion for 6 weeks
5×FAD transgenic mice [4] = test: Mitochondrial TDP-43 in brains of 5×FAD transgenic mice; format: in vivo, mouse; details: 0.5 mg/kg/day s.c. infusion for 4 weeks; female mice
rat primary neurons = test: TDP-43 toxicity in cultured rat primary neurons overexpressing WT or mutant TDP-43; format: cell-based; details: overexpression of WT, G298S, A315T or A382T TDP-43
[5] = system: G298S or A382T fibroblasts; test: Sensitivity of primary human fibroblasts to oxidative stress (H2O2, LDH assay); format: cell-based; details: 1 μM pre-treatment 48 hours, then 50 μM H2O2 for 1 hour; LDH release
TDP-43 A315T mice [6] = test: Motor behavioral assessment (footprint, rotarod) in TDP-43 A315T mice; format: in vivo, mouse; details: 70 day old male mice treated from 60 day old, restored to levels comparable to NTG mice
[7] = system: hemizygous TDP-43M337V mice; test: Cognitive tests (Y maze, T maze, object recognition, fear conditioning) in TDP-43M337V mice; format: in vivo, mouse; details: continuous s.c. infusion for 6 weeks; to the levels of NTG/cPM mice
[8] = system: hemizygous TDP-43M337V mice; test: OCR/mΔψ in synaptic mitochondria from brains of NTG and TDP-43M337V mice; format: in vivo, mouse
OXPHOS complex I = test: OXPHOS complex assembly (BN-PAGE/immunoblot) and activity in patient fibroblasts; format: cell-based, human; details: G298S or A382T fibroblasts, 1 μM for 48 hours; to levels comparable to NHFs
[9] = system: hemizygous TDP-43M337V mice; test: Neuronal density in cortical layers 2 and 3 (H&E) of TDP-43M337V mice; format: in vivo, mouse; details: 12-13 month old mice; compared with WT mice or WT mice treated with cPM
5×FAD transgenic mice [10] = test: Barnes maze in 5×FAD transgenic mice; format: in vivo, mouse; details: 0.5 mg/kg/day s.c. infusion for 4 weeks; compared with Tg mice treated with cPM
[11] = system: hemizygous TDP-43M337V mice; test: Rotarod and beam walking tests in TDP-43M337V mice; format: in vivo, mouse; details: continuous s.c. infusion for 6 weeks, after symptom onset; 12-13 month old
[12] = system: G298S or A382T fibroblasts; test: Mitochondrial function (mΔψ, ATP, OCR) and morphology in primary human fibroblasts; format: cell-based; details: HEK293 cells and human fibroblasts; 1 μM for 48 hours
[13] = system: hemizygous TDP-43M337V mice; test: Grip strength, open field and sticky paper tests in TDP-43M337V mice; format: in vivo, mouse; details: NTG/cPM, Tg/cPM and Tg/PM1 groups
TDP-43 A315T mice [14] = test: Mitochondrial TDP-43, ND3/ND6 and mitochondrial function in TDP-43 A315T mice; format: in vivo, mouse
[15] = TDP-43M337V mice, 1.5 mg/kg/day s.c. infusion for 6 weeks

Sequence: YGRKKRRQRRRAQFPGACGL [PM1]
- ND3 and ND6 expression (ND3 and ND6): increased
- pF1β import (pF1β): no effect
- levels of endogenous mTDP-43 in mitochondria in brains of WT mice (endogenous mTDP-43): substantially reduced
- motor neuron loss and axon degeneration (TDP-43 A315T mice [1]): alleviated
- neuropathologies (inclusions and astrocyte activation) (TDP-43 A315T mice [1]): alleviated
- denervated neuromuscular junction (NMJ) (TDP-43 A315T mice [1]; gastrocnemius muscles): alleviated
- increased vulnerability to oxidative stress (A382T human neurons): alleviated
- mitochondrial fragmentation/dysfunction (A382T human neurons): alleviated
- rotarod performance (5×FAD transgenic mice [2]): significantly improved
- TDP-43 cytoplasmic accumulation in cortical neurons [3]: disappeared
- hTDP-43 expression in mitochondria fraction ([3]; brain): significantly reduced
- total TDP-43 (mTDP-43 plus hTDP-43) expression in mitochondria fraction ([3]; brain): significantly reduced
- level of TDP-43 in mitochondria in brains of Tg mice (5×FAD transgenic mice [4]): reduced
- mitochondrial fragmentation and dysfunction (reduced mΔψ/OCR/ATP) (rat primary neurons): completely abolished
- neuronal death (rat primary neurons): completely abolished
- increased vulnerability to oxidative stress [5]: abolished
- impaired motor coordination/balance (TDP-43 A315T mice [6]; accelerating rotarod 4-40 rpm in 5 minutes): alleviated
- gait abnormalities (TDP-43 A315T mice [6]; walking footprint patterns): alleviated
- cognition (Y maze, T maze, object recognition, fear conditioning) [7]: greatly restored
- basal levels of mΔψ or OCR ([8]; PM1 alone (NTG mice treated with PM1)): did not change
- reduction of mitochondrial membrane potential (mΔψ) in synaptic mitochondria [8, 15]: greatly alleviated
- reduction of oxygen consumption rate (OCR) in synaptic mitochondria [8, 15]: greatly alleviated
- OXPHOS complex I assembly (OXPHOS complex I): significantly restored
- OXPHOS complex I function (OXPHOS complex I): significantly restored
- neuronal density in cortical layers 2 and 3 [9]: comparable
- latency to target hole (5×FAD transgenic mice [10]): greatly reduce
- motor coordination and balance (rotarod and beam-walking performance) [11]: improved
- WT and/or mutant TDP-43-induced mitochondrial dysfunction (mΔψ, OCR, ATP) [12]: completely prevented
- WT and/or mutant TDP-43-induced mitochondrial fragmentation [12]: completely prevented
- grip strength (fore-/hind-limb) [13]: No difference
- locomotor activities (open field test) [13]: No difference
- tactile sense (sticky paper test) [13]: No difference
- mitochondrial fragmentation and dysfunction (reduced mΔψ/OCR and complex I disassembly) (TDP-43 A315T mice [14]; 70 day old male mice treated from 60 day old, 0.5 mg/kg/Day s.c., restored to levels comparable to NTG mice): alleviated
- mutant TDP-43 in mitochondria (TDP-43 A315T mice [14]; continuous subcutaneous infusion, 0.5 mg/kg/Day): substantially reduced
- reduced ND3 and ND6 expression (TDP-43 A315T mice [14]; spinal cord mitochondria, 70 day old male mice treated from 60 day old, 0.5 mg/kg/Day s.c., restored to levels comparable to NTG mice): alleviated

Sequence: YGRKKRRQRRRSKGFGFVRF [PM3]
- pF1β import (pF1β): no effect
